Test results reported in paper doi:10.1101/352724.
No constants are given. Whether binding was seen depends on the method and setting. In cells and extracts the contact can be indirect. Some entries that bind do so weakly or less than the wild type.

The chains behind the UniProt entries cited, without tags or fusion partners. Where a name states a change or a piece, a line headed by the entry shows the natural chain unless it says otherwise. A line that says so, or that is headed by a name, gives the form on record, which may keep a tag or linker.
GFP-tagged wild-type Tau (4R0N isoform) (P10636, form named): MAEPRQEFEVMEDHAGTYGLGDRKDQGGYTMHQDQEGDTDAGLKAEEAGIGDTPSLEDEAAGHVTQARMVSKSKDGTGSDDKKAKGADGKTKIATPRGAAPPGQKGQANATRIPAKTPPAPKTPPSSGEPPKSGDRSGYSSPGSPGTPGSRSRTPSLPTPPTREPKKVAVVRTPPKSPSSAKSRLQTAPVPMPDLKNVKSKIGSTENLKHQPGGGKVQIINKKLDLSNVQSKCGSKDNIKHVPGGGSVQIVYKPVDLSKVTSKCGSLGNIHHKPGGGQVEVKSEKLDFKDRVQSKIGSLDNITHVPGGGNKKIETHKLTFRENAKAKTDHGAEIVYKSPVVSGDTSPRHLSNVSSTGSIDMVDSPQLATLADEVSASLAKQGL
UniProt O14964: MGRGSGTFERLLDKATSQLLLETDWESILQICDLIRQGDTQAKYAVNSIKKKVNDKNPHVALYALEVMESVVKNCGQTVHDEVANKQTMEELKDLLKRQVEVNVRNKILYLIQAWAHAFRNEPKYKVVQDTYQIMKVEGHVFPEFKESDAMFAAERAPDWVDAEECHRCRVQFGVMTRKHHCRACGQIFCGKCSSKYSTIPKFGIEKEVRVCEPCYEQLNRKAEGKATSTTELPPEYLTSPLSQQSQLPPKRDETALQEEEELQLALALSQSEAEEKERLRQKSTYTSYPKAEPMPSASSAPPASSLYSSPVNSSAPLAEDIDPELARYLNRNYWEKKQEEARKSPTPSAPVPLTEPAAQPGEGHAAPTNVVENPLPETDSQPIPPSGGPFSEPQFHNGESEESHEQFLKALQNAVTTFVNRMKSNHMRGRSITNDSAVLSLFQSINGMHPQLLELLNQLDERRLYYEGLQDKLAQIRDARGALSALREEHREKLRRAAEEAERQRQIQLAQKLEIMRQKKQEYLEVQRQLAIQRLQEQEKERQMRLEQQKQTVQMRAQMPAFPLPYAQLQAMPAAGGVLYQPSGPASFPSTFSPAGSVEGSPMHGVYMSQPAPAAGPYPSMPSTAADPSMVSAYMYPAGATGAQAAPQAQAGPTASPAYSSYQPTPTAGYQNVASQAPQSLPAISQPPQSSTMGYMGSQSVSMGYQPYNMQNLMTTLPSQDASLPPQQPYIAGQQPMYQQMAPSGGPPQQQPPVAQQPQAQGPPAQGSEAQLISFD

What was measured:
[1] = target: GFP-tagged wild-type Tau (4R0N isoform) (UniProt P10636); assay: co-IP
[2] = target: GFP-tagged wild-type Tau (4R0N isoform) (UniProt P10636); assay: proximity ligation

Row | Substance | binding [1] | binding [2]
1 | FLAG-Hrs (from UniProt O14964 1-777) | binds | 
2 | mCh-tagged Hrs (from UniProt O14964 1-777) |  | binds
